Measurements published in paper PMC9301189.
No constants are given. Whether binding was seen depends on the method and setting. Binding seen in cells or lysates may run through a third protein. Some entries that bind do so weakly or less than the wild type.

Biological target: hnRNPU (human (endogenous in HCT116 and FHC)) (UniProt Q00839)
Assay: co-IP; HCT116 nucleoprotein extracts treated with RNase; precipitated with antibody to hnRNPK (or to hnRNPU) or IgG, protein-A/G Sepharose beads, 4°C; partners detected by western blot

binding: binds
Substance: hnRNPK (from UniProt P61978 1-463)
